Reference: the supplement of paper PMC8728848
The other results are listed elsewhere or left out.

How the values were obtained:
Assay in all cases: glycan array binding signal (z-score within array); higher = stronger binding
Settings in all cases: glycan notation: IUPAC condensed, linker removed
[1] = target: Fuc(a1-2)Gal
How it was run: (§1)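 The Consortium for Functional Glycomics database supplied 3228 glycan arrays, of which those lacking an available protein sequence were dropped. The binding signal, a within-array Z-score, was averaged across arrays of the same protein sequence and across linkers. Negative scores can be read as non-binding.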

[2] = target: Fuc(a1-2)Gal(b1-3)GalNAc
How it was run: as §1

[3] = target: Fuc(a1-2)Gal(b1-3)GalNAc(a1-3)[Fuc(a1-2)]Gal(b1-4)Glc
How it was run: as §1

[4] = target: Fuc(a1-2)Gal(b1-3)GalNAc(a1-3)[Fuc(a1-2)]Gal(b1-4)GlcNAc
How it was run: as §1

[5] = target: Fuc(a1-2)Gal(b1-3)GalNAc(b1-3)Gal
How it was run: as §1

[6] = target: Fuc(a1-2)Gal(b1-3)GalNAc(b1-3)Gal(a1-4)Gal(b1-4)Glc
How it was run: as §1

[7] = target: Fuc(a1-2)Gal(b1-3)GalNAc(b1-4)[Neu5Ac(a2-3)]Gal(b1-4)Glc
How it was run: as §1

[8] = target: Fuc(a1-2)Gal(b1-3)GlcNAc
How it was run: as §1

[9] = target: Fuc(a1-2)Gal(b1-3)GlcNAc(b1-2)Man(a1-3)[Fuc(a1-2)Gal(b1-3)GlcNAc(b1-2)Man(a1-6)]Man(b1-4)GlcNAc(b1-4)GlcNAc
How it was run: as §1

[10] = target: Fuc(a1-2)Gal(b1-3)GlcNAc(b1-2)Man(a1-3)[Fuc(a1-2)Gal(b1-3)GlcNAc(b1-2)Man(a1-6)]Man(b1-4)GlcNAc(b1-4)[Fuc(a1-6)]GlcNAc
How it was run: as §1

[11] = target: Fuc(a1-2)Gal(b1-3)GlcNAc(b1-3)Gal(b1-4)Glc
How it was run: as §1

[12] = target: Fuc(a1-2)Gal(b1-3)GlcNAc(b1-3)GalNAc
How it was run: as §1

[13] = target: Fuc(a1-2)Gal(b1-3)GlcNAc(b1-3)[Fuc(a1-2)Gal(b1-3)GlcNAc(b1-6)]GalNAc
How it was run: as §1

[14] = target: Fuc(a1-2)Gal(b1-3)GlcNAc(b1-3)[Gal(b1-4)GlcNAc(b1-6)]Gal(b1-4)Glc
How it was run: as §1

[15] = target: Fuc(a1-2)Gal(b1-3)GlcNAc(b1-3)[Neu5Ac(a2-6)Gal(b1-4)GlcNAc(b1-6)]Gal(b1-4)Glc
How it was run: as §1

[16] = target: Fuc(a1-2)Gal(b1-3)GlcNAc6S
How it was run: as §1

[17] = target: Fuc(a1-2)Gal(b1-3)[Fuc(a1-4)]GlcNAc
How it was run: as §1

[18] = target: Fuc(a1-2)Gal(b1-3)[Fuc(a1-4)]GlcNAc(b1-2)Man(a1-3)[Fuc(a1-2)Gal(b1-3)[Fuc(a1-4)]GlcNAc(b1-2)Man(a1-3)]Man(b1-4)GlcNAc(b1-4)GlcNAc
How it was run: as §1

[19] = target: Fuc(a1-2)Gal(b1-3)[Fuc(a1-4)]GlcNAc(b1-2)Man(a1-3)[Fuc(a1-2)Gal(b1-3)[Fuc(a1-4)]GlcNAc(b1-2)Man(a1-6)]Man(b1-4)GlcNAc(b1-4)[Fuc(a1-6)]GlcNAc(b1-4)[Fuc(a1-6)]GlcNAc
How it was run: as §1

[20] = target: Fuc(a1-2)Gal(b1-3)[Fuc(a1-4)]GlcNAc(b1-3)[Fuc(a1-3)[Gal(b1-4)]GlcNAc(b1-6)]Gal(b1-4)Glc
How it was run: as §1

[21] = target: Fuc(a1-2)Gal(b1-3)[Fuc(a1-4)]GlcNAc(b1-3)[Gal(b1-4)GlcNAc(b1-6)]Gal(b1-4)Glc
How it was run: as §1

[22] = target: Fuc(a1-2)Gal(b1-4)Fuc(a1-3)]GlcNAc(b1-2)Man(a1-3)[Fuc(a1-2)Gal(b1-4)[Fuc(a1-3)]GlcNAc(b1-2)Man(a1-6)]Man(b1-4)GlcNAc(b1-4)GlcNAc
How it was run: as §1

[23] = target: Fuc(a1-2)Gal(b1-4)Glc
How it was run: as §1

[24] = target: Fuc(a1-2)Gal(b1-4)Glc6S
How it was run: as §1

[25] = target: Fuc(a1-2)Gal(b1-4)GlcNAc
How it was run: as §1

[26] = target: Fuc(a1-2)Gal(b1-4)GlcNAc(b1-2)Man
How it was run: as §1

[27] = target: Fuc(a1-2)Gal(b1-4)GlcNAc(b1-2)Man(a1-3)[Fuc(a1-2)Gal(b1-4)GlcNAc(b1-2)Man(a1-6)]Man(b1-4)GlcNAc(b1-4)GlcNAc
How it was run: as §1

[28] = target: Fuc(a1-2)Gal(b1-4)GlcNAc(b1-2)Man(a1-3)[Fuc(a1-2)Gal(b1-4)GlcNAc(b1-2)Man(a1-6)]Man(b1-4)GlcNAc(b1-4)[Fuc(a1-6)]GlcNAc
How it was run: as §1

[29] = target: Fuc(a1-2)Gal(b1-4)GlcNAc(b1-2)[Fuc(a1-2)Gal(b1-4)GlcNAc(b1-4)]Man(a1-3)[Fuc(a1-2)Gal(b1-4)GlcNAc(b1-2)Man(a1-6)]Man(b1-4)GlcNAc(b1-4)GlcNAc
How it was run: as §1

[30] = target: Fuc(a1-2)Gal(b1-4)GlcNAc(b1-3)Gal(b1-4)GlcNAc
How it was run: as §1

B1: Ovorubin (Pomacea canaliculata), J7I2T6 (protein)
chain: MFVATSLLLAIATLVVRASPHNYLIMDIEPPKSVSERDILNLLSPLQVKHSFRVTGSTRLLIVIRLDAQSYEKLDEITVPGKVEVIPAVNMADTMERCGVSWPRVELTDDNVTLFESESTLTDVTKEQLKAMLIGYGEHMSGLLQAHRFEYYQAAGATPHRHFVFVNSVPDEIEVFGREGVDIWGGPGEFVVKPQYVTRI
glycan array binding signal (z-score) [1]: 0.093
glycan array binding signal (z-score) [2]: 0.098
glycan array binding signal (z-score) [3]: 0.18
glycan array binding signal (z-score) [4]: -0.341
glycan array binding signal (z-score) [5]: -0.987
glycan array binding signal (z-score) [6]: -0.745
glycan array binding signal (z-score) [7]: 0.056
glycan array binding signal (z-score) [8]: 1.06
glycan array binding signal (z-score) [9]: -0.378
glycan array binding signal (z-score) [10]: 1.06
glycan array binding signal (z-score) [11]: -0.018
glycan array binding signal (z-score) [12]: -0.329
glycan array binding signal (z-score) [13]: 0.441
glycan array binding signal (z-score) [14]: 0.184
glycan array binding signal (z-score) [15]: 0.56
glycan array binding signal (z-score) [16]: 0.256
glycan array binding signal (z-score) [17]: -0.817
glycan array binding signal (z-score) [18]: 0.027
glycan array binding signal (z-score) [19]: -0.094
glycan array binding signal (z-score) [20]: -0.241
glycan array binding signal (z-score) [21]: -0.744
glycan array binding signal (z-score) [22]: 0.055
glycan array binding signal (z-score) [23]: 0.009
glycan array binding signal (z-score) [24]: 0.202
glycan array binding signal (z-score) [25]: 0.075
glycan array binding signal (z-score) [26]: 1.08
glycan array binding signal (z-score) [27]: 2.27
glycan array binding signal (z-score) [28]: 1.59
glycan array binding signal (z-score) [29]: 0.623
glycan array binding signal (z-score) [30]: 0.006
